These are yes or no findings as the source states them, for the method shown. In cells and extracts the contact can be indirect. A result given as binding can be weak or reduced; the word gives no strength. Sequences can lack the tags named with a protein.
T1: Flag-tagged NDP52 (CALCOCO2) (not stated (human or mouse cDNA cloned)) (UniProt Q13137)
T1 sequence: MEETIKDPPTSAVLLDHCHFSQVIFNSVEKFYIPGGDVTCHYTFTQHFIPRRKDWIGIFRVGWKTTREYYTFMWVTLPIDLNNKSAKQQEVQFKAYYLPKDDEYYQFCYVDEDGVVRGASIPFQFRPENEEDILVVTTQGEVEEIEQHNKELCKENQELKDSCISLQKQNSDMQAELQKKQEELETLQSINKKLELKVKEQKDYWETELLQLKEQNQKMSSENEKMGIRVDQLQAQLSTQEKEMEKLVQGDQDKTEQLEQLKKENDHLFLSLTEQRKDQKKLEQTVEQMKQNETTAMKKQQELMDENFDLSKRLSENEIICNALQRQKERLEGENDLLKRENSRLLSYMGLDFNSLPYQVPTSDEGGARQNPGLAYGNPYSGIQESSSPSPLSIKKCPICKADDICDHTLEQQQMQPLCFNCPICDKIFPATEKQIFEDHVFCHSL

Protein sequences, listed by entry. Tags and fused reporters are not part of them. Lines headed by an entry give the natural chain unless they say otherwise; changes in a name come on top.
UniProt Q14653: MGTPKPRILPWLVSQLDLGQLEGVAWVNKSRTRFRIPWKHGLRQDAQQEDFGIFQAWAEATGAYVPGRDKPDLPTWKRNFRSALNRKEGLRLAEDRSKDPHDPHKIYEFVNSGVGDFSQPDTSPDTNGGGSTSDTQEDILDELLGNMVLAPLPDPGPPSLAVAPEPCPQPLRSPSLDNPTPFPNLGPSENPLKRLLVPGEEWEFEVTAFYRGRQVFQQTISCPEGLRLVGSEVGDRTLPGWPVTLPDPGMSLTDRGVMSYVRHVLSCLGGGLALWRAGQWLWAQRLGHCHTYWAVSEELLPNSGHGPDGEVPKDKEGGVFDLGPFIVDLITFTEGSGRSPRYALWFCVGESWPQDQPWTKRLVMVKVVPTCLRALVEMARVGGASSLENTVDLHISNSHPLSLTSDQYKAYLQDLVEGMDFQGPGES


Tests used:
Assay in all cases: co-IP; 293T cells co-transfected with HA-tagged SHIP1 constructs and Flag-tagged partners; IP using anti-Flag beads and immunoblot with anti-HA (Fig. 3C, 5A; also Fig. 3H, 3I, S3A, S5A); Flag-IRF3 with HA-SHIP1 also in NDP52 KO 293T cells, where the interaction was reduced (Fig. 5J)
[1] = molecular target: T1, Flag-tagged NDP52 (CALCOCO2) (not stated (human or mouse cDNA cloned))
[2] = molecular target: Flag-IRF3 ΔC (DBD+PRO+IAD)
[3] = molecular target: IRF3-5D (a constitutively active mutant of IRF3) (UniProt Q14653)
[4] = molecular target: Flag-IRF3 ΔDBD (PRO+IAD+RD)

Row | binding [1] | binding [2] | binding [3] | binding [4] | Molecule
1 | binds | – | – | – | HA-SHIP1 phosphatase domain (domain or fragment)
2 | – | binds | binds | binds | HA-tagged SHIP1 (Src homology 2 containing inositol phosphatase 1), full length (protein, UniProt Q92835 1-1189) MVPCWNHGNITRSKAEELLSRTGKDGSFLVRASESISRAYALCVLYRNCVYTYRILPNEDDKFTVQASEGVSMRFFTKLDQLIEFYKKENMGLVTHLQYPVPLEEEDTGDDPEEDTVESVVSPPELPPRNIPLTASSCEAKEVPFSNENPRATETSRPSLSETLFQRLQSMDTSGLPEEHLKAIQDYLSTQLAQDSEFVKTGSSSLPHLKKLTTLLCKELYGEVIRTLPSLESLQRLFDQQLSPGLRPRPQVPGEANPINMVSKLSQLTSLLSSIEDKVKALLHEGPESPHRPSLIPPVTFEVKAESLGIPQKMQLKVDVESGKLIIKKSKDGSEDKFYSHKKILQLIKSQKFLNKLVILVETEKEKILRKEYVFADSKKREGFCQLLQQMKNKHSEQPEPDMITIFIGTWNMGNAPPPKKITSWFLSKGQGKTRDDSADYIPHDIYVIGTQEDPLSEKEWLEILKHSLQEITSVTFKTVAIHTLWNIRIVVLAKPEHENRISHICTDNVKTGIANTLGNKGAVGVSFMFNGTSLGFVNSHLTSGSEKKLRRNQNYMNILRFLALGDKKLSPFNITHRFTHLFWFGDLNYRVDLPTWEAETIIQKIKQQQYADLLSHDQLLTERREQKVFLHFEEEEITFAPTYRFERLTRDKYAYTKQKATGMKYNLPSWCDRVLWKSYPLVHVVCQSYGSTSDIMTSDHSPVFATFEAGVTSQFVSKNGPGTVDSQGQIEFLRCYATLKTKSQTKFYLEFHSSCLESFVKSQEGENEEGSEGELVVKFGETLPKLKPIISDPEYLLDQHILISIKSSDSDESYGEGCIALRLEATETQLPIYTPLTHHGELTGHFQGEIKLQTSQGKTREKLYDFVKTERDESSGPKTLKSLTSHDPMKQWEVTSRAPPCSGSSITEIINPNYMGVGPFGPPMPLHVKQTLSPDQQPTAWSYDQPPKDSPLGPCRGESPPTPPGQPPISPKKFLPSTANRGLPPRTQESRPSDLGKNAGDTLPQEDLPLTKPEMFENPLYGSLSSFPKPAPRKDQESPKMPRKEPPPCPEPGILSPSIVLTKAQEADRGEGPGKQVPAPRLRSFTCSSSAEGRAAGGDKSQGKPKTPVSSQAPVPAKRPIKPSRSEINQQTPPTPTPRPPLPVKSPAVLHLQHSKGRDYRDNTELPHHGKHRPEEGPPGPLGRTAMQ

From PMC10470592
